PubChem BioAssay AID1508597, Cure First | 2020
Here is an unselected part of about 2,100 reagents. 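Calls flag viability under 80% in either arm, not effects specific to rucaparib; the reference for percent is not stated.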 Some reagents were tested in more than one well and are listed for each. Not given: the 100% reference.

Aim: 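Survival screen with siRNA in ovarian cancer cells derived from patients, with or without rucaparib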 (primary screen)
System: human ovarian carcinoma lines grown from tumours: OCI-P5x (papillary serous) and OCI-C5x (clear cell)
Reagent: siRNA pool against human genes, 1.25 pmol siRNA per well
Time to read-out: 72 h or 96 h, depending on the cell culture
Challenge: rucaparib 20 µM (about IC30) or vehicle, present until read-out
Read-out: 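Luminescent ATP-based viability assay read 72 or 96 h after transfection, depending on culture, given as normalised percent viability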
Scale: viability, normalised: higher = more viable cells remaining
Rule for the call: 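Active when normalised viability falls below 80 percent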
Calls: active = viability under 80%; inactive = viability 80% or more

{"gene knocked down":"IL11 (interleukin 11)","rucaparib or vehicle":"Rucaparib","cell line":"OCI-C5x (clear cell)","technical replicate":"1","viability, normalised (%)":31,"outcome":"active"}
{"gene knocked down":"IL11 (interleukin 11)","rucaparib or vehicle":"Rucaparib","cell line":"OCI-C5x (clear cell)","technical replicate":"2","viability, normalised (%)":14.5,"outcome":"active"}
{"gene knocked down":"IL11 (interleukin 11)","rucaparib or vehicle":"Rucaparib","cell line":"OCI-C5x (clear cell)","technical replicate":"3","viability, normalised (%)":25.8,"outcome":"active"}
{"gene knocked down":"IL11 (interleukin 11)","rucaparib or vehicle":"Rucaparib","cell line":"OCI-P5x (serous)","technical replicate":"1","viability, normalised (%)":64,"outcome":"active"}
{"gene knocked down":"IL11 (interleukin 11)","rucaparib or vehicle":"Rucaparib","cell line":"OCI-P5x (serous)","technical replicate":"2","viability, normalised (%)":63.2,"outcome":"active"}
{"gene knocked down":"IL11 (interleukin 11)","rucaparib or vehicle":"Rucaparib","cell line":"OCI-P5x (serous)","technical replicate":"3","viability, normalised (%)":66.3,"outcome":"active"}
{"gene knocked down":"IL11 (interleukin 11)","rucaparib or vehicle":"Vehicle","cell line":"OCI-C5x (clear cell)","technical replicate":"1","viability, normalised (%)":39,"outcome":"active"}
{"gene knocked down":"IL11 (interleukin 11)","rucaparib or vehicle":"Vehicle","cell line":"OCI-C5x (clear cell)","technical replicate":"2","viability, normalised (%)":22.6,"outcome":"active"}
{"gene knocked down":"IL11 (interleukin 11)","rucaparib or vehicle":"Vehicle","cell line":"OCI-C5x (clear cell)","technical replicate":"3","viability, normalised (%)":25.1,"outcome":"active"}
{"gene knocked down":"IL11 (interleukin 11)","rucaparib or vehicle":"Vehicle","cell line":"OCI-P5x (serous)","technical replicate":"1","viability, normalised (%)":74.5,"outcome":"active"}
{"gene knocked down":"IL11 (interleukin 11)","rucaparib or vehicle":"Vehicle","cell line":"OCI-P5x (serous)","technical replicate":"2","viability, normalised (%)":60.4,"outcome":"active"}
{"gene knocked down":"IL11 (interleukin 11)","rucaparib or vehicle":"Vehicle","cell line":"OCI-P5x (serous)","technical replicate":"3","viability, normalised (%)":93,"outcome":"inactive"}
{"gene knocked down":"TGFBR1 (transforming growth factor beta receptor 1)","rucaparib or vehicle":"Rucaparib","cell line":"OCI-C5x (clear cell)","technical replicate":"1","viability, normalised (%)":76.7,"outcome":"active"}
{"gene knocked down":"TGFBR1 (transforming growth factor beta receptor 1)","rucaparib or vehicle":"Rucaparib","cell line":"OCI-C5x (clear cell)","technical replicate":"2","viability, normalised (%)":60.9,"outcome":"active"}
{"gene knocked down":"TGFBR1 (transforming growth factor beta receptor 1)","rucaparib or vehicle":"Rucaparib","cell line":"OCI-C5x (clear cell)","technical replicate":"3","viability, normalised (%)":58.4,"outcome":"active"}
{"gene knocked down":"TGFBR1 (transforming growth factor beta receptor 1)","rucaparib or vehicle":"Rucaparib","cell line":"OCI-P5x (serous)","technical replicate":"1","viability, normalised (%)":119,"outcome":"inactive"}
{"gene knocked down":"TGFBR1 (transforming growth factor beta receptor 1)","rucaparib or vehicle":"Rucaparib","cell line":"OCI-P5x (serous)","technical replicate":"2","viability, normalised (%)":109,"outcome":"inactive"}
{"gene knocked down":"TGFBR1 (transforming growth factor beta receptor 1)","rucaparib or vehicle":"Rucaparib","cell line":"OCI-P5x (serous)","technical replicate":"3","viability, normalised (%)":99.7,"outcome":"inactive"}
{"gene knocked down":"TGFBR1 (transforming growth factor beta receptor 1)","rucaparib or vehicle":"Vehicle","cell line":"OCI-C5x (clear cell)","technical replicate":"1","viability, normalised (%)":91.3,"outcome":"inactive"}
{"gene knocked down":"TGFBR1 (transforming growth factor beta receptor 1)","rucaparib or vehicle":"Vehicle","cell line":"OCI-C5x (clear cell)","technical replicate":"2","viability, normalised (%)":78.6,"outcome":"active"}
{"gene knocked down":"TGFBR1 (transforming growth factor beta receptor 1)","rucaparib or vehicle":"Vehicle","cell line":"OCI-C5x (clear cell)","technical replicate":"3","viability, normalised (%)":59.3,"outcome":"active"}
{"gene knocked down":"TGFBR1 (transforming growth factor beta receptor 1)","rucaparib or vehicle":"Vehicle","cell line":"OCI-P5x (serous)","technical replicate":"1","viability, normalised (%)":118,"outcome":"inactive"}
{"gene knocked down":"TGFBR1 (transforming growth factor beta receptor 1)","rucaparib or vehicle":"Vehicle","cell line":"OCI-P5x (serous)","technical replicate":"2","viability, normalised (%)":103,"outcome":"inactive"}
{"gene knocked down":"TGFBR1 (transforming growth factor beta receptor 1)","rucaparib or vehicle":"Vehicle","cell line":"OCI-P5x (serous)","technical replicate":"3","viability, normalised (%)":119,"outcome":"inactive"}

Single entries from above:
Value for IL11 (interleukin 11), rucaparib or vehicle Rucaparib, cell line OCI-C5x (clear cell), technical replicate 1 in “viability, normalised (%)”: 31
IL11 (interleukin 11), rucaparib or vehicle Vehicle, cell line OCI-P5x (serous), technical replicate 1, outcome = active
For “outcome”, TGFBR1 (transforming growth factor beta receptor 1), rucaparib or vehicle Rucaparib, cell line OCI-C5x (clear cell), technical replicate 3 reads active
Value for IL11 (interleukin 11), rucaparib or vehicle Rucaparib, cell line OCI-P5x (serous), technical replicate 3 in “outcome”: active
For “outcome”, TGFBR1 (transforming growth factor beta receptor 1), rucaparib or vehicle Vehicle, cell line OCI-C5x (clear cell), technical replicate 1 reads inactive
Value of TGFBR1 (transforming growth factor beta receptor 1), rucaparib or vehicle Rucaparib, cell line OCI-C5x (clear cell), technical replicate 1 under “viability, normalised (%)”: 76.7

Next results:
{"gene knocked down":"ERCC2 (ERCC excision repair 2, TFIIH core complex helicase subunit)","rucaparib or vehicle":"Rucaparib","cell line":"OCI-C5x (clear cell)","technical replicate":"1","viability, normalised (%)":69.1,"outcome":"active"}
{"gene knocked down":"ERCC2 (ERCC excision repair 2, TFIIH core complex helicase subunit)","rucaparib or vehicle":"Rucaparib","cell line":"OCI-C5x (clear cell)","technical replicate":"1","viability, normalised (%)":50.8,"outcome":"active"}
{"gene knocked down":"ERCC2 (ERCC excision repair 2, TFIIH core complex helicase subunit)","rucaparib or vehicle":"Rucaparib","cell line":"OCI-C5x (clear cell)","technical replicate":"2","viability, normalised (%)":51.9,"outcome":"active"}
{"gene knocked down":"ERCC2 (ERCC excision repair 2, TFIIH core complex helicase subunit)","rucaparib or vehicle":"Rucaparib","cell line":"OCI-C5x (clear cell)","technical replicate":"2","viability, normalised (%)":65.8,"outcome":"active"}
{"gene knocked down":"ERCC2 (ERCC excision repair 2, TFIIH core complex helicase subunit)","rucaparib or vehicle":"Rucaparib","cell line":"OCI-C5x (clear cell)","technical replicate":"3","viability, normalised (%)":63.5,"outcome":"active"}
{"gene knocked down":"ERCC2 (ERCC excision repair 2, TFIIH core complex helicase subunit)","rucaparib or vehicle":"Rucaparib","cell line":"OCI-C5x (clear cell)","technical replicate":"3","viability, normalised (%)":58.2,"outcome":"active"}
{"gene knocked down":"ERCC2 (ERCC excision repair 2, TFIIH core complex helicase subunit)","rucaparib or vehicle":"Rucaparib","cell line":"OCI-P5x (serous)","technical replicate":"1","viability, normalised (%)":117,"outcome":"inactive"}
{"gene knocked down":"ERCC2 (ERCC excision repair 2, TFIIH core complex helicase subunit)","rucaparib or vehicle":"Rucaparib","cell line":"OCI-P5x (serous)","technical replicate":"1","viability, normalised (%)":55,"outcome":"active"}
{"gene knocked down":"ERCC2 (ERCC excision repair 2, TFIIH core complex helicase subunit)","rucaparib or vehicle":"Rucaparib","cell line":"OCI-P5x (serous)","technical replicate":"2","viability, normalised (%)":123,"outcome":"inactive"}
{"gene knocked down":"ERCC2 (ERCC excision repair 2, TFIIH core complex helicase subunit)","rucaparib or vehicle":"Rucaparib","cell line":"OCI-P5x (serous)","technical replicate":"2","viability, normalised (%)":53.7,"outcome":"active"}
{"gene knocked down":"ERCC2 (ERCC excision repair 2, TFIIH core complex helicase subunit)","rucaparib or vehicle":"Rucaparib","cell line":"OCI-P5x (serous)","technical replicate":"3","viability, normalised (%)":117,"outcome":"inactive"}
{"gene knocked down":"ERCC2 (ERCC excision repair 2, TFIIH core complex helicase subunit)","rucaparib or vehicle":"Rucaparib","cell line":"OCI-P5x (serous)","technical replicate":"3","viability, normalised (%)":59.4,"outcome":"active"}
{"gene knocked down":"ERCC2 (ERCC excision repair 2, TFIIH core complex helicase subunit)","rucaparib or vehicle":"Vehicle","cell line":"OCI-C5x (clear cell)","technical replicate":"1","viability, normalised (%)":50.4,"outcome":"active"}
{"gene knocked down":"ERCC2 (ERCC excision repair 2, TFIIH core complex helicase subunit)","rucaparib or vehicle":"Vehicle","cell line":"OCI-C5x (clear cell)","technical replicate":"1","viability, normalised (%)":63.8,"outcome":"active"}
{"gene knocked down":"ERCC2 (ERCC excision repair 2, TFIIH core complex helicase subunit)","rucaparib or vehicle":"Vehicle","cell line":"OCI-C5x (clear cell)","technical replicate":"2","viability, normalised (%)":49.2,"outcome":"active"}
{"gene knocked down":"ERCC2 (ERCC excision repair 2, TFIIH core complex helicase subunit)","rucaparib or vehicle":"Vehicle","cell line":"OCI-C5x (clear cell)","technical replicate":"2","viability, normalised (%)":69,"outcome":"active"}
{"gene knocked down":"ERCC2 (ERCC excision repair 2, TFIIH core complex helicase subunit)","rucaparib or vehicle":"Vehicle","cell line":"OCI-C5x (clear cell)","technical replicate":"3","viability, normalised (%)":67,"outcome":"active"}
{"gene knocked down":"ERCC2 (ERCC excision repair 2, TFIIH core complex helicase subunit)","rucaparib or vehicle":"Vehicle","cell line":"OCI-C5x (clear cell)","technical replicate":"3","viability, normalised (%)":59.5,"outcome":"active"}
{"gene knocked down":"ERCC2 (ERCC excision repair 2, TFIIH core complex helicase subunit)","rucaparib or vehicle":"Vehicle","cell line":"OCI-P5x (serous)","technical replicate":"1","viability, normalised (%)":121,"outcome":"inactive"}
{"gene knocked down":"ERCC2 (ERCC excision repair 2, TFIIH core complex helicase subunit)","rucaparib or vehicle":"Vehicle","cell line":"OCI-P5x (serous)","technical replicate":"1","viability, normalised (%)":67,"outcome":"active"}
{"gene knocked down":"ERCC2 (ERCC excision repair 2, TFIIH core complex helicase subunit)","rucaparib or vehicle":"Vehicle","cell line":"OCI-P5x (serous)","technical replicate":"2","viability, normalised (%)":108,"outcome":"inactive"}
{"gene knocked down":"ERCC2 (ERCC excision repair 2, TFIIH core complex helicase subunit)","rucaparib or vehicle":"Vehicle","cell line":"OCI-P5x (serous)","technical replicate":"2","viability, normalised (%)":65.8,"outcome":"active"}
{"gene knocked down":"ERCC2 (ERCC excision repair 2, TFIIH core complex helicase subunit)","rucaparib or vehicle":"Vehicle","cell line":"OCI-P5x (serous)","technical replicate":"3","viability, normalised (%)":68.9,"outcome":"active"}
{"gene knocked down":"ERCC2 (ERCC excision repair 2, TFIIH core complex helicase subunit)","rucaparib or vehicle":"Vehicle","cell line":"OCI-P5x (serous)","technical replicate":"3","viability, normalised (%)":113,"outcome":"inactive"}
